No constants are given. Whether binding was seen depends on the method and setting. Binding seen in cells or lysates may run through a third protein. A result given as binding can be weak or reduced; the word gives no strength.
Assays:
[1] = molecular target: Pseudomonas aeruginosa FtsW (Pseudomonas aeruginosa) (UniProt Q9HW00); assay: cryo-EM structure; PaFtsWIQBL co-expressed in E. coli and co-purified, in LMNG micelle, 20 mM HEPES, 300 mM NaCl, pH 7.0, 0.005% LMNG; single-particle reconstruction at 3.7 A overall; both purified
[2] = molecular target: T1, E. coli TwinStrep-FtsK 1-222 (E. coli) (UniProt P46889); assay: co-purification (StrepTrap, then HisTrap, then SEC); FtsQ-His6 and TwinStrep-FtsK 1-222 co-expressed in Sf9, membranes solubilised in 1% GDN, StrepTrap-HP then HisTrap then Superose 6 Increase in 50 mM Tris, 100 mM NaCl, 0.006% GDN, 10% glycerol, pH 8.0, 4 C; SDS-PAGE of SEC fractions
T1 sequence: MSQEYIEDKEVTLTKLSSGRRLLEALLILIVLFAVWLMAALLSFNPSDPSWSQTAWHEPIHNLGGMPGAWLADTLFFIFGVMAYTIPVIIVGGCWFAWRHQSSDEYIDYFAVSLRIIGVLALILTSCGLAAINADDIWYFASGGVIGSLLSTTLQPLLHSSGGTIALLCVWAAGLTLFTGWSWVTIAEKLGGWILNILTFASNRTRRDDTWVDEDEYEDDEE

Protein sequences, listed by entry. Tags and fused reporters are not part of them. Lines headed by an entry give the natural chain unless they say otherwise; changes in a name come on top.
UniProt Q9HW00: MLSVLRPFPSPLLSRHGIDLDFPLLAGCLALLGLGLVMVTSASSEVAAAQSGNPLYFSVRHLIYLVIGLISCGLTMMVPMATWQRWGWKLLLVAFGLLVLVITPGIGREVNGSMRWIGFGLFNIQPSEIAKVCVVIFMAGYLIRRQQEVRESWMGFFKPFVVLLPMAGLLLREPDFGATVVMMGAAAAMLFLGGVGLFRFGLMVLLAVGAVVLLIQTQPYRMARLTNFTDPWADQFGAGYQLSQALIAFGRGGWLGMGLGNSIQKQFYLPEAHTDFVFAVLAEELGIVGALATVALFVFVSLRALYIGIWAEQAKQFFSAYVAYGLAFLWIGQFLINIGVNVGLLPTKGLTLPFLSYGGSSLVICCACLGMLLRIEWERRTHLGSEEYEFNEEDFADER
UniProt G3XD46: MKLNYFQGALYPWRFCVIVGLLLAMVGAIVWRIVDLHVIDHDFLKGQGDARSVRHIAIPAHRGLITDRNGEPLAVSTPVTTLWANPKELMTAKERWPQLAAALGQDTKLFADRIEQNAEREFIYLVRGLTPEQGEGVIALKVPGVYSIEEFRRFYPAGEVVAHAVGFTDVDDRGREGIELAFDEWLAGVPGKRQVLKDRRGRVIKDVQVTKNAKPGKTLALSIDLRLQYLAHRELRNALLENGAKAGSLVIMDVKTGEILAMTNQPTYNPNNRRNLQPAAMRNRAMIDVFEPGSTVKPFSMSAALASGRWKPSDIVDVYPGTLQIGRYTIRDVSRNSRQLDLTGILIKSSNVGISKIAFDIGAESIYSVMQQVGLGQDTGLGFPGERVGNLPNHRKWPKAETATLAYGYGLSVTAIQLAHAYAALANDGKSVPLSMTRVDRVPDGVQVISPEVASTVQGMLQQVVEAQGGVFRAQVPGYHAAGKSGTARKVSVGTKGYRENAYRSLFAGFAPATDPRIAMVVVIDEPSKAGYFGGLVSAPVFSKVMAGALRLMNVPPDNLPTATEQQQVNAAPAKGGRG
UniProt P06136: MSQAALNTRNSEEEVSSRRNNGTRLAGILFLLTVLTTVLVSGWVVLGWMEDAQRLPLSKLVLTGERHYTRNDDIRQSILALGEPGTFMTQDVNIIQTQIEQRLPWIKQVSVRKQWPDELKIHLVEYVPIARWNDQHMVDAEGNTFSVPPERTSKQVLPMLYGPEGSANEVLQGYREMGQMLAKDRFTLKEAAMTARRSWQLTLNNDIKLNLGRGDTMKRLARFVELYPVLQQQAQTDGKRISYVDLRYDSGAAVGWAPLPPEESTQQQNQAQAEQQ

For “Pseudomonas aeruginosa FtsI (from UniProt G3XD46 1-579) (enzyme)”, the binding [1] was “binds”.

With E. coli FtsQ-His6 (from UniProt P06136) the binding [2] was “binds”.

Reference: paper PMC7614612
